In the supplement of paper PMC12823440, “Inhibitors supercharge kinase turnover through native proteolytic circuits” (Nature, 2025):
The other results are listed elsewhere or left out. The calls rarely recur for the same compound in another form.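 In K562 cells expressing nanoluciferase-fused kinases, luminescence was recorded at 4 h intervals between 2 and 18 h, normalized as percent of control with DMSO at 100% and a positive control at 0%. A significant (2 sigma) signal drop marks a time point as decreased. The authors' rule for a hit is not shown and takes in more than the number of time points.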

The chains behind the UniProt entries cited, without tags or fusion partners. Where a name states a change or a piece, a line headed by the entry shows the natural chain unless it says otherwise.
UniProt P29597: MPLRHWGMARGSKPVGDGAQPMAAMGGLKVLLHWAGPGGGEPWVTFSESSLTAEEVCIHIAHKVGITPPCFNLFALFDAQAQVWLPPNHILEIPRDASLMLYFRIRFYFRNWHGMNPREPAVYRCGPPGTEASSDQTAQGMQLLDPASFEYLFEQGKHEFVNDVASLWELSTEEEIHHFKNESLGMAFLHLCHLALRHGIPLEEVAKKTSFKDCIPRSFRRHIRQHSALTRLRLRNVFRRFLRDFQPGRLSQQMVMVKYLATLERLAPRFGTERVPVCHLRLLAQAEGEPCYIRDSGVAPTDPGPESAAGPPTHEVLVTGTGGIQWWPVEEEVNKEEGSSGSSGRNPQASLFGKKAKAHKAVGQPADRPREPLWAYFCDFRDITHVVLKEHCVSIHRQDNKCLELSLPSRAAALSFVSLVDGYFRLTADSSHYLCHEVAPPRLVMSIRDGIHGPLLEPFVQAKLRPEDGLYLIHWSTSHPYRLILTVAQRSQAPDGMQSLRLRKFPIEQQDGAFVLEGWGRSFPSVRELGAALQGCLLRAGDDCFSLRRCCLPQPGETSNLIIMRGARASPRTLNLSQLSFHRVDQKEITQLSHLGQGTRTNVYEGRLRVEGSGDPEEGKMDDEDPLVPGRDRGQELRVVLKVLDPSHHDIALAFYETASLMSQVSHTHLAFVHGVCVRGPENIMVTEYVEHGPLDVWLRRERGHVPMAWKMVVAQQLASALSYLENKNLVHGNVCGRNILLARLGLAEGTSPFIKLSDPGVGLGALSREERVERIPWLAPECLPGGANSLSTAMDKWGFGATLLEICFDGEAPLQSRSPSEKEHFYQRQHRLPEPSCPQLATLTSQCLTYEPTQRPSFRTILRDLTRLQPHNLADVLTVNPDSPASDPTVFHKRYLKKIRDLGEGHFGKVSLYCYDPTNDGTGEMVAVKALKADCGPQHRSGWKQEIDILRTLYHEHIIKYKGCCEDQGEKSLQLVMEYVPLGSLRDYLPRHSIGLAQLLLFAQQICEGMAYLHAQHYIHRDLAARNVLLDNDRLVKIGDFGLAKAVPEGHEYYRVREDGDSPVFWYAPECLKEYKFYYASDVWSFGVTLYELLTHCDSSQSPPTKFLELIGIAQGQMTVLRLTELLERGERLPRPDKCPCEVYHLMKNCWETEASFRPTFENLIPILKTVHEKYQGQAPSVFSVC
UniProt Q05397, whole entry, looked up: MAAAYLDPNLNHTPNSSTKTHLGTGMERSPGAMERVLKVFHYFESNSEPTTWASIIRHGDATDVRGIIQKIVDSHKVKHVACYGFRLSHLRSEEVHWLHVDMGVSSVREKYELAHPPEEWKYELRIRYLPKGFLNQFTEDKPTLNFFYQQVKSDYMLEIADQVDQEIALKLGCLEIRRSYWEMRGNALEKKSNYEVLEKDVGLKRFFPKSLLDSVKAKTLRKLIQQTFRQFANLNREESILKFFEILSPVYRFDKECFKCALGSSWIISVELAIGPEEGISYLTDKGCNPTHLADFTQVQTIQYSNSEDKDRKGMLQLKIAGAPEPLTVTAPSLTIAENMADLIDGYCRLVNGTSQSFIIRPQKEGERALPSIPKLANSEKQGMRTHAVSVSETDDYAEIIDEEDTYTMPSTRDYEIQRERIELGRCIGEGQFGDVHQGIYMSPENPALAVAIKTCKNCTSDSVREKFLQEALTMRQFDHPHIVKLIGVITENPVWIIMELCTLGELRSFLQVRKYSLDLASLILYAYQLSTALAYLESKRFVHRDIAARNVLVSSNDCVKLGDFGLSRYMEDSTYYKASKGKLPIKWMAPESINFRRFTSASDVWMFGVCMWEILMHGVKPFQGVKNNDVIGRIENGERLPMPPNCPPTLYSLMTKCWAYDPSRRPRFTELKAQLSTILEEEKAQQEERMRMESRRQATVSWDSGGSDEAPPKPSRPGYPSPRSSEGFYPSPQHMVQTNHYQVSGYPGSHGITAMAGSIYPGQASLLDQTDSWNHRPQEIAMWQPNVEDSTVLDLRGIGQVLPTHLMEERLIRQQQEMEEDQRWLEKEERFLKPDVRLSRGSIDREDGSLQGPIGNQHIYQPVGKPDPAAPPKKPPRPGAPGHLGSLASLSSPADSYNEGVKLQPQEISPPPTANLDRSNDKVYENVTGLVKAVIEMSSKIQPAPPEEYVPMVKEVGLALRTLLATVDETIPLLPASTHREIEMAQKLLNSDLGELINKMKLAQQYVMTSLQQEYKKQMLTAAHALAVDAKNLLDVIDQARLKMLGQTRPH
UniProt P48730: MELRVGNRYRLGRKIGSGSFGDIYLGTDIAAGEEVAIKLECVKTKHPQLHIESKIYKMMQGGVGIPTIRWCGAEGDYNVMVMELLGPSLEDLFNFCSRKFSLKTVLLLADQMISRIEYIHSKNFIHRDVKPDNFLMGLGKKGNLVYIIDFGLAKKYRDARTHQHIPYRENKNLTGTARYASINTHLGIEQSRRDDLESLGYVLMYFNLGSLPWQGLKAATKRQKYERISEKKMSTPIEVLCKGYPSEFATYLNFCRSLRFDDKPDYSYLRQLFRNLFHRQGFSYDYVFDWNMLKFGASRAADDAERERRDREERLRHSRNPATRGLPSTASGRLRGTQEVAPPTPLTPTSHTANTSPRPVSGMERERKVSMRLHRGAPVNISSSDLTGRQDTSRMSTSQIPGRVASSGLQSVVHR
UniProt Q9Y616: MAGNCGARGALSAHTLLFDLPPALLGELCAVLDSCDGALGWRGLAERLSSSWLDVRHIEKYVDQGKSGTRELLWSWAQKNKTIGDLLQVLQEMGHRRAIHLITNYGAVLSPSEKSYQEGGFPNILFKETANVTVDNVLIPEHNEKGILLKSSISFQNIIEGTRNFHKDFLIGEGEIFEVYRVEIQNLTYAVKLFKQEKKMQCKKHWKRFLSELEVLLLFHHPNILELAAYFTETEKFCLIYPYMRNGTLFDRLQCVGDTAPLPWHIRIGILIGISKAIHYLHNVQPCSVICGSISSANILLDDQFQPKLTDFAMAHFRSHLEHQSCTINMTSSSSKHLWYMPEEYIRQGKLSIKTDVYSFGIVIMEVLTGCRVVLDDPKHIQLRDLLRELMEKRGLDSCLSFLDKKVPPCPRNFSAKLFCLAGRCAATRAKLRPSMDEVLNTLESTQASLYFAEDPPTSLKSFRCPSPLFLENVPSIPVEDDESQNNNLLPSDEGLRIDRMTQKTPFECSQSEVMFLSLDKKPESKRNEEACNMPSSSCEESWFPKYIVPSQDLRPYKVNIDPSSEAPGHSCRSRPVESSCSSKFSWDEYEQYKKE
UniProt P48729: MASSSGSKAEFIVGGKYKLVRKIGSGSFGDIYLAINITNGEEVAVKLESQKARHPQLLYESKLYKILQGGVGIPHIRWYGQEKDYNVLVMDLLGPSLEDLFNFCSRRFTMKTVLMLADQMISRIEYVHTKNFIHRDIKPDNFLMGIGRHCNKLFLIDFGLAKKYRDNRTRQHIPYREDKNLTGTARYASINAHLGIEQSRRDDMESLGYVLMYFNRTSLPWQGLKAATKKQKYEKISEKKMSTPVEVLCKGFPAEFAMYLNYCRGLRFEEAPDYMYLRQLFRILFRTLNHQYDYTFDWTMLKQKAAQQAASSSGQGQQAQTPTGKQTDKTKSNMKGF
UniProt P53671: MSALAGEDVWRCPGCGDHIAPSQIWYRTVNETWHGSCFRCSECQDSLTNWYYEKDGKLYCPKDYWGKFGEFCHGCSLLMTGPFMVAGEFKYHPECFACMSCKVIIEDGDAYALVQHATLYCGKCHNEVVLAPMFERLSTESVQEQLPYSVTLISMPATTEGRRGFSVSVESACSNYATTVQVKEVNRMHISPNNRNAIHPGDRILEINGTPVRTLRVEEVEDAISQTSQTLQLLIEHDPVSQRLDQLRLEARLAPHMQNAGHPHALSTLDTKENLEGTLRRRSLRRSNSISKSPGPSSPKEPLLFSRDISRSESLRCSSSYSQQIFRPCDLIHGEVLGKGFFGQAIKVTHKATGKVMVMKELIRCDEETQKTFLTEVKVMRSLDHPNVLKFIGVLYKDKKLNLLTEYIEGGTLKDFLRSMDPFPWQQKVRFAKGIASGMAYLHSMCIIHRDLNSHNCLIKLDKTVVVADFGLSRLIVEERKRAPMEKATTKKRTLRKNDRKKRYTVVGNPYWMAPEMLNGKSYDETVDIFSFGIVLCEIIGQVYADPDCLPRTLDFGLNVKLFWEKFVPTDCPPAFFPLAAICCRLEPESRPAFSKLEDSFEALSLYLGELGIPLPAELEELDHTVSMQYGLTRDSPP
UniProt P21802, whole entry, looked up: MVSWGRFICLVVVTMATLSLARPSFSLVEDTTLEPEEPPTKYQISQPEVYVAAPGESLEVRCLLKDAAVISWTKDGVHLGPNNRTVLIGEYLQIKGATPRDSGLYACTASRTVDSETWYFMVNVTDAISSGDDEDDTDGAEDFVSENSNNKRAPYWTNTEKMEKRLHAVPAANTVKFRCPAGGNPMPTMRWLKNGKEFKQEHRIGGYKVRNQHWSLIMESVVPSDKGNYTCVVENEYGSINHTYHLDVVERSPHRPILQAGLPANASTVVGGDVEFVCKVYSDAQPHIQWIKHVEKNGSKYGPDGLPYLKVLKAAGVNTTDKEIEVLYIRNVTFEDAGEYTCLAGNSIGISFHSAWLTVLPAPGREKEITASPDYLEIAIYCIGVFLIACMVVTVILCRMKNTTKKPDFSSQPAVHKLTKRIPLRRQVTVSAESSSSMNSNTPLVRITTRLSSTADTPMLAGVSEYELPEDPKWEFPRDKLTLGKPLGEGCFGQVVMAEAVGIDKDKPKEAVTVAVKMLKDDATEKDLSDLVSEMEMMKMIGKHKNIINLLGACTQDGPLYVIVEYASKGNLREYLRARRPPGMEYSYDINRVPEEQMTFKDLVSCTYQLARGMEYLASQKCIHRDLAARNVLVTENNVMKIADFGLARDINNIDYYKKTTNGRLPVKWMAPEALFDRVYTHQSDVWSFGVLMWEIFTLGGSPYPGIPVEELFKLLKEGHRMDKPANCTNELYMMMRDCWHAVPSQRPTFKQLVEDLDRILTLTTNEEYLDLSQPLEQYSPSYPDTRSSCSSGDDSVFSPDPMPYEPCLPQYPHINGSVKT

Columns and labels:
Test in all cases: number of time points (of 5) at which kinase-Nluc abundance scored as decreased, DMSO-normalised (count); higher = more persistent destabilization
Trametinib = compound: CC(=O)Nc1cccc(-n2c(=O)n(C3CC3)c(=O)c3c(Nc4ccc(I)cc4F)n(C)c(=O)c(C)c32)c1 [Trametinib]; conditions: 10 µM; K562; 2-18 h
[1] = compound: CC(=O)c1c(C)c2cnc(Nc3ccc(N4CCNCC4)cn3)nc2n(C2CCCC2)c1=O [Palbociclib (isethionate)]; conditions: 10 µM; K562; 2-18 h
[2] = compound: CC(=O)c1c(C)c2cnc(Nc3ccc(N4CCNCC4)cn3)nc2n(C2CCCC2)c1=O [Palbociclib (monohydrochloride)]; conditions: 10 µM; K562; 2-18 h
[3] = compound: CC(C)(C)n1nc(-c2cccc3ccccc23)c2c(N)ncnc21 [1-Naphthyl PP1 (hydrochloride)]; conditions: 10 µM; K562; 2-18 h
1-Naphthyl PP1 = compound: CC(C)(C)n1nc(-c2cccc3ccccc23)c2c(N)ncnc21 [1-Naphthyl PP1]; conditions: 10 µM; K562; 2-18 h
[4] = compound: CC(C)NC[C@@H](C(=O)N1CCN(c2ncnc3c2[C@H](C)C[C@H]3O)CC1)c1ccc(Cl)cc1 [Ipatasertib (dihydrochloride)]; conditions: 10 µM; K562; 2-18 h
Ipatasertib = compound: CC(C)NC[C@@H](C(=O)N1CCN(c2ncnc3c2[C@H](C)C[C@H]3O)CC1)c1ccc(Cl)cc1 [Ipatasertib]; conditions: 10 µM; K562; 2-18 h
[5] = compound: CC(C)Nc1cc(-c2c[nH]c(C(=O)N[C@H](CO)c3cccc(Cl)c3)c2)c(Cl)cn1 [Ulixertinib (hydrochloride)]; conditions: 10 µM; K562; 2-18 h
Ulixertinib = compound: CC(C)Nc1cc(-c2c[nH]c(C(=O)N[C@H](CO)c3cccc(Cl)c3)c2)c(Cl)cn1 [Ulixertinib]; conditions: 10 µM; K562; 2-18 h
[6] = compound: CC(C)Oc1ccc(-c2nn([C@@H](C)c3oc4ccc(F)cc4c(=O)c3-c3cccc(F)c3)c3ncnc(N)c23)cc1F [Umbralisib (hydrochloride)]; conditions: 2.5 µM; K562; 2-18 h
Umbralisib = compound: CC(C)Oc1ccc(-c2nn([C@@H](C)c3oc4ccc(F)cc4c(=O)c3-c3cccc(F)c3)c3ncnc(N)c23)cc1F [Umbralisib]; conditions: 2.5 µM; K562; 2-18 h
Bucladesine (calcium) = compound: CCCC(=O)Nc1ncnc2c1ncn2[C@@H]1O[C@@H]2COP(=O)(O)O[C@H]2[C@H]1OC(=O)CCC [Bucladesine (calcium)]; conditions: 10 µM; K562; 2-18 h
Bucladesine (sodium) = compound: CCCC(=O)Nc1ncnc2c1ncn2[C@@H]1O[C@@H]2COP(=O)(O)O[C@H]2[C@H]1OC(=O)CCC [Bucladesine (sodium)]; conditions: 10 µM; K562; 2-18 h
[7] = compound: CCCCCCCCc1ccc(CCC(N)(CO)CO)cc1 [Fingolimod (hydrochloride)]; conditions: 2.5 µM; K562; 2-18 h
Fingolimod = compound: CCCCCCCCc1ccc(CCC(N)(CO)CO)cc1 [Fingolimod]; conditions: 2.5 µM; K562; 2-18 h
[8] = compound: CCN(CC)CC(=O)Nc1c(C)cccc1C [Lidocaine (hydrochloride)]; conditions: 10 µM; K562; 2-18 h
Lidocaine = compound: CCN(CC)CC(=O)Nc1c(C)cccc1C [Lidocaine]; conditions: 10 µM; K562; 2-18 h
[9] = compound: CCN(CC)Cc1ccc(OC)c(-c2cc3c(-c4ccc(C(=O)O)c(C(C)C)c4)ccnc3[nH]2)c1; conditions: K562, 2-18 h
Baricitinib (phosphate) = compound: CCS(=O)(=O)N1CC(CC#N)(n2cc(-c3ncnc4[nH]ccc34)cn2)C1 [Baricitinib (phosphate)]; conditions: 10 µM; K562; 2-18 h
Baricitinib = compound: CCS(=O)(=O)N1CC(CC#N)(n2cc(-c3ncnc4[nH]ccc34)cn2)C1 [Baricitinib]; conditions: 10 µM; K562; 2-18 h

Target | number of time points (Trametinib) | number of time points [1] | number of time points [2] | number of time points [3] | number of time points (1-Naphthyl PP1) | number of time points [4] | number of time points (Ipatasertib) | number of time points [5] | number of time points (Ulixertinib) | number of time points [6] | number of time points (Umbralisib) | number of time points (Bucladesine (calcium)) | number of time points (Bucladesine (sodium)) | number of time points [7] | number of time points (Fingolimod) | number of time points [8] | number of time points (Lidocaine) | number of time points ([9]; 2.5 µM) | number of time points ([9]; 10 µM) | number of time points (Baricitinib (phosphate)) | number of time points (Baricitinib)
TYK2 (UniProt P29597) | 5 | 0 | 0 | 0 | 0 | 0 | 0 | 0 | 0 | 0 | 0 | 0 | 0 | 0 | 0 | 0 | 0 | 0 | 0 | 0 | 0
PTK2 (UniProt Q05397) | 1 | 0 | 0 | 0 | 0 | 0 | 0 | 0 | 0 | 0 | 0 | 0 | 0 | 0 | 0 | 0 | 0 | 0 | 0 | 0 | 0
CSNK1D (UniProt P48730) | 0 | 0 | 0 | – | – | 0 | 0 | 0 | 0 | 0 | 0 | 0 | 0 | 0 | 0 | 0 | 0 | 0 | 0 | 0 | 0
EGFR_L861Q (UniProt P00533) | 1 | 4 | 0 | 0 | 0 | 0 | 0 | 0 | 1 | 0 | 0 | 0 | 0 | 0 | 0 | 0 | 0 | 0 | 0 | 0 | 0
IRAK3 (UniProt Q9Y616) | 0 | 2 | 0 | 0 | 0 | 0 | 0 | 0 | 4 | 0 | 0 | 0 | 0 | 0 | 0 | 0 | 0 | 1 | 1 | 0 | 0
CSNK1A1 (UniProt P48729) | 2 | – | – | 0 | 0 | 0 | 0 | 0 | 0 | 0 | 0 | 0 | 0 | 0 | 0 | 0 | 0 | 0 | 0 | 0 | 0
RAF1 (UniProt P04049) | 0 | 1 | 0 | 0 | 0 | 0 | 0 | 0 | 0 | 0 | 0 | 0 | 0 | 0 | 0 | 0 | 0 | 0 | 0 | 0 | 0
LIMK2 (UniProt P53671) | 0 | 0 | 0 | 0 | 0 | 0 | 0 | 0 | 0 | 0 | 0 | 0 | 0 | 0 | 0 | 0 | 0 | 0 | 0 | 0 | 0
FGFR2 (UniProt P21802) | 2 | 3 | 0 | 0 | 0 | 0 | 0 | 0 | 0 | 0 | 0 | 0 | 0 | 0 | 0 | 0 | 0 | 0 | 0 | 0 | 0

Record cards (already shown). Values in the order: number of time points (Trametinib)	number of time points [1]	number of time points [2]	number of time points [3]	number of time points (1-Naphthyl PP1)	number of time points [4]	number of time points (Ipatasertib)	number of time points [5]	number of time points (Ulixertinib)	number of time points [6]	number of time points (Umbralisib)	number of time points (Bucladesine (calcium))	number of time points (Bucladesine (sodium))	number of time points [7]	number of time points (Fingolimod)	number of time points [8]	number of time points (Lidocaine)	number of time points ([9]; 2.5 µM)	number of time points ([9]; 10 µM)	number of time points (Baricitinib (phosphate))	number of time points (Baricitinib)
CSNK1A1 (UniProt P48729) as listed: 2	–	–	0	0	0	0	0	0	0	0	0	0	0	0	0	0	0	0	0	0
TYK2 (UniProt P29597) as listed: 5	0	0	0	0	0	0	0	0	0	0	0	0	0	0	0	0	0	0	0	0
